These are yes or no findings as the source states them, for the method shown. Binding seen in cells or lysates may run through a third protein. A yes stands for co-enrichment or nearness to the bait. Other partners may have been found.

For this assay, the target named is T1, SZY-20 (C. elegans (endogenous in C. elegans embryos)) (UniProt G5EGU9).
T1 sequence: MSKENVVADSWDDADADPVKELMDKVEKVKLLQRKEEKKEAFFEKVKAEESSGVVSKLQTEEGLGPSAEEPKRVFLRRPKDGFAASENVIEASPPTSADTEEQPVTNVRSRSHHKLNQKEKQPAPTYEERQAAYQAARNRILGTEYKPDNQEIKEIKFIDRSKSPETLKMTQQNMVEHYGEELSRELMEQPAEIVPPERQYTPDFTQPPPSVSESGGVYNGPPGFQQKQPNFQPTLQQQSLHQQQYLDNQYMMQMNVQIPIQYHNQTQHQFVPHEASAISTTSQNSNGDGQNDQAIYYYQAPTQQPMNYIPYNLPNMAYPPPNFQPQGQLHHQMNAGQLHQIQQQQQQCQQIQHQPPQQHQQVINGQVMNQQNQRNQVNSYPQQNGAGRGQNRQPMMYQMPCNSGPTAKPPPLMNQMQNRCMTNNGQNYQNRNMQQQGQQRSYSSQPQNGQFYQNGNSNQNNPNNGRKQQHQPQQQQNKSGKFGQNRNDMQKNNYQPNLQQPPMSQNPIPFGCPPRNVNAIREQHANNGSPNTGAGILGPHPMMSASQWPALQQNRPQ
Put plainly: affinity purification with mass spectrometry; IP of endogenous SZY-20 with anti-SZY-20 from worm protein lysates, followed by mass spectrometry.

B1: PAB-1 (protein, UniProt Q9U302 1-646)
chain: MEMNVAAPAAAVAGAAAPQPGQNQTGSSYTMASLYVGDLHPDVNESILFEKFSAAGPVLSIRVCRDNATRLSLGYAYVNFQQPADAERAMDTMNFEALHGKPMRIMWSQRDPAMRRSGAGNIFIKNLDKVIDNKSIYDTFSLFGNILSCKVAIDEDGFSKGYGFVHFETEEAAQNAIQKVNGMLLAGKKVFVGKFQPRAQRNRELGETAKQFTNVYVKNFGDHYNKETLEKLFAKFGNITSCEVMTVEGKSKGFGFVAFANPEEAETAVQALHDSTIEGTDLKLHVCRAQKKSERHAELKKKHEQHKAERMQKYQGVNLYVKNLDETVDDDGLKKQFESYGNITSAKVMTDENGRSKGFGFVCFEKPEEATSAVTEMNSKMVCSKPLYVAIAQRKEDRRAQLASQYMQRLASMRMHGNVPGAAMYNPTQPGPGYYVANPMQQQRNFAGGQQMVRPGGRWGMQNQYPVQNQYMMAQGPGVYQNRMGRPQNQQGGPRGPPQQYNQVAQGGVRMQGPPRTQNPGVQQQNVPRPPQQQQQQRPAPTGPKAPPQPYQAYQQRPQGIVIGGQEPLTSAMLAAAAPQEQKQLLGERIYALIEKLYPGHKDAGKITGMMLEIDNSELIMMLQDSELFRSKVDEAASVLVSAQKQ
In the case of B1, the binding entry is on record as “binds”.

(Values after paper PMC5045193.)
